# Reference: the supplement of paper PMC7858590
# ± gives the standard deviation of the averaged measurements. Whole data set: some 3,800 compounds, median “cell shape (eccentricity) Z-score vs DMSO control” near 1.1, cut for the lowest 2% near -4.7. The list shows a part of the results.
# Test system: human monocyte-derived macrophages (M0)
# Assay: cell shape (eccentricity) Z-score vs DMSO control; higher = more elongated, M2-like morphology
# Details: 20 µM; 24 h; macrophage state: M0 (M-CSF)
row,Molecule,cell shape (Z-score)
1,O=c1ncccn1[C@@H]1O[C@H](CO)[C@H](O)C1O (stereo not given in full),6.32
2,C[C@@H]1CN(c2c(F)c(F)c3c(=O)c(C(=O)O)cn(C4CC4)c3c2F)C[C@H](C)N1,1.23
3,Nc1ccc(S(=O)(=O)Nc2ncccn2)cc1,2.8
4,O=C1c2ccccc2S(=O)(=O)N1CCCN1CCN(c2ncccn2)CC1,-0.907
5,CC(=O)N(C)C1(c2ccccc2)CCN(CCC[C@]2(c3ccc(Cl)c(Cl)c3)CCCN(C(=O)c3ccccc3)C2)CC1,1.35
6,CC(=O)OCC(=O)[C@@]12OC(C)(C)O[C@@H]1CC1C3C[C@H](F)C4=CC(=O)C=C[C@]4(C)[C@@]3(F)[C@@H](O)C[C@@]12C (stereo not given in full),-2.9
7,COc1cc2c(c(OC)c1OC)CCc1cc(O)c(O)cc1-2,-0.208
8,COc1cccc2c1C(=O)CC(c1ccccc1)O2 (stereo not given),1.75
9,O=C1C=CC(=O)C2=C1C1c3ccccc3C2c2ccccc21,1.84
10,Cc1onc(C(=O)N2CCN(C(c3ccc(Cl)cc3)c3ccc(Cl)cc3)CC2)c1[N+](=O)[O-],-0.965
11,COc1ccc(/C=C/C(=O)O[C@H]2[C@H](O[C@H]3[C@@H]4C=CO[C@@H](O[C@@H]5O[C@H](CO)[C@@H](O)[C@H](O)[C@H]5O)[C@@H]4[C@@]4(CO)O[C@@H]34)O[C@@H](C)[C@H](O)[C@H]2OC(C)=O)cc1,0.694 ± 0.82
12,CCC(C)n1ncn(-c2ccc(N3CCN(c4ccc(OC[C@H]5CO[C@](Cn6cncn6)(c6ccc(Cl)cc6Cl)O5)cc4)CC3)cc2)c1=O (stereo not given in full),0.541
13,OC[C@H]1O[C@@H](OCc2ccccc2)[C@H](O)[C@@H](O)[C@@H]1O,2.86
14,H-RKDVY-OH,1.52
15,O=C(c1ccccc1)c1ccc2n1CCC2C(=O)O (stereo not given),0.0328
16,c1ccc(N2CCN(Cc3nc4ccccc4[nH]3)CC2)nc1,-0.725
17,COC(=O)C1=CO[C@@H](OC2OC(O)C(O)C(O)C2CO)[C@H]2[C@@H]1C=CC21C=C([C@H](C)OC(=O)/C=C/c2ccc(OC3OC(CO)C(O)C(O)C3O)cc2)C(=O)O1 (stereo not given in full),-0.889
18,CCCCCCCCCCCCC/C=C/[C@@H](O)[C@H](CO)NC(=O)CCCCC,0.547
19,O=c1cc(-c2ccccc2)oc2cccc(O)c12,-0.394
20,C[C@@H]1CC[C@]2(C(=O)O[C@@H]3O[C@H](CO)[C@@H](O)[C@H](O)[C@H]3O)CC[C@]3(C)C(=CCC4[C@@]5(C)C[C@@H](O)[C@H](O)C(C)(C)C5CC[C@]43C)C2[C@]1(C)O (stereo not given in full),2.93
21,CC1(C)CCC(c2ccc(Cl)cc2)=C(CN2CCN(c3ccc(C(=O)NS(=O)(=O)c4ccc(N[C@H](CCN5CCOCC5)CSc5ccccc5)c(S(=O)(=O)C(F)(F)F)c4)cc3)CC2)C1,5.63
22,C=CC1=C(C)c2cc3[nH]c(cc4nc(cc5[nH]c(cc1n2)c(C)c5CCC(=O)O)C(CCC(=O)O)=C4C)c(C)c3C=C,0.722

# Part of the list above, reformatted:
row	Molecule	cell shape (Z-score)
2	C[C@@H]1CN(c2c(F)c(F)c3c(=O)c(C(=O)O)cn(C4CC4)c3c2F)C[C@H](C)N1	1.23
10	Cc1onc(C(=O)N2CCN(C(c3ccc(Cl)cc3)c3ccc(Cl)cc3)CC2)c1[N+](=O)[O-]	-0.965
18	CCCCCCCCCCCCC/C=C/[C@@H](O)[C@H](CO)NC(=O)CCCCC	0.547

# Further results:

row,Molecule,cell shape (Z-score)
1,C=C1C(=O)O[C@@H]2C[C@H](C)C3C[C@H](O)[C@H](O)[C@@]3(C)C[C@H]12 (stereo not given in full),-2.78 ± 0.67
2,CC(=O)C(O)(C(=O)OCc1ccc(O[C@@H]2O[C@H](CO)[C@@H](O)[C@H](O)[C@H]2O)cc1)C(C)C (stereo not given in full),1.38
3,O=C(O)c1ccc2cc(-c3ccc(O)c(C45CC6CC(CC(C6)C4)C5)c3)ccc2c1,4.58
4,COC(=O)C1=C(C)NC(C)=C(C(=O)OCC(C)C)C1c1ccccc1[N+](=O)[O-] (stereo not given),1.98
5,O=C(NCCO[N+](=O)[O-])c1cccnc1,0.999
6,C[C@H]1O[C@@H](O[C@H]2CC[C@@]3(C)C(CC[C@]4(C)C3CC=C3C5CC(C)(C)CC[C@]5(C(=O)O)CC[C@]34C(=O)O)C2(C)C)[C@H](O)[C@@H](O)[C@H]1O (stereo not given in full),-1.07
7,COc1ccc2c(c1)O[C@@H]1COc3cc4c(cc3[C@]1(O)C2=O)OCO4,-2.32
8,CC(C)n1cnc2c(NCc3ccccc3O)nc(NCCCO)nc21,3.13
9,C[C@@H]1O[C@@H](O[C@H]2[C@H](O[C@H]3CC[C@@]4(C)C(CC[C@]5(C)C4CC=C4C6CC(C)(C)CC[C@]6(C(=O)O[C@@H]6O[C@H](CO[C@@H]7O[C@H](CO)[C@@H](O[C@@H]8O[C@@H](C)[C@H](O)[C@@H](O)[C@H]8O)[C@H](O)[C@H]7O)[C@@H](O)[C@H](O)[C@H]6O)CC[C@]45C)C3(C)C)OC[C@H](O)[C@@H]2O)[C@H](O)[C@H](O)[C@H]1O (stereo not given in full),-0.243 ± 0.75
10,CCc1ccc(C(=O)C(C)CN2CCCCC2)cc1 (stereo not given),0.247
11,CC(=O)OC1CCC(C)(O)C2OC(CC1(C)O)C(C(C)C)C2OC(=O)/C=C/c1ccccc1 (stereo not given),-1.36
12,C[C@]12CCC3c4ccc(O)cc4CCC3C1C[C@@H](O)[C@@H]2O (stereo not given in full),2.3
13,NS(=O)(=O)c1cc2c(cc1C(F)(F)F)NC(Cc1ccccc1)NS2(=O)=O (stereo not given),1.7
14,COc1ccc(-c2oc3c(CC=C(C)C)c(O[C@@H]4O[C@H](CO)[C@@H](O)[C@H](O)[C@H]4O)cc(O)c3c(=O)c2O[C@@H]2O[C@@H](C)[C@H](O)[C@@H](O)[C@H]2O)cc1,-2.65
15,CC(C)C1NC(=O)/C(=C/c2cnc[nH]2)NC1=O (stereo not given),-0.366
16,CCN(CCO)CCCC(C)Nc1ccnc2cc(Cl)ccc12 (stereo not given),0.0103
17,O=C(O)CCc1c(C(=O)O)[nH]c2cc(Cl)cc(Cl)c12,1.64
18,O=C(O)Cn1c(C(=O)Nc2nc(-c3ccccc3Cl)cs2)cc2ccccc21,2.41
19,COC(=O)Nc1nc2ccc(C(=O)c3ccccc3)cc2[nH]1,0.369
20,CS(=O)(=O)CCNCc1nc(-c2ccc3ncnc(Nc4ccc(OCc5cccc(F)c5)c(Cl)c4)c3c2)cs1,-2.15
21,COc1ccc(C(=O)Nc2sc3c(c2C(N)=O)CCCC3)cc1OC,-0.0146
22,Cc1cc(=O)oc2c(O)c(O)ccc12,1.41

row,Molecule,cell shape (Z-score)
1,COC(=O)c1ccc2c(c1)NC(=O)/C2=C(\Nc1ccc(N(C)C(=O)CN2CCN(C)CC2)cc1)c1ccccc1,1.75
2,CC1CCC2C(C)(C)C(=O)CC[C@]2(C)C12Cc1c(O)cc3c(c1O2)CN(C(CCC(=O)O)C(=O)O)C3=O (stereo not given in full),0.0904
3,N=C(N)NC(=N)N1CCOCC1,4.12
4,CN1C[C@H]2C[C@@H]1CN2c1cc2c(cc1F)c(=O)c(C(=O)O)cn2C1CC1,-1.92
5,CC(=O)Nc1ccc(C(=O)Nc2cc(-c3cccs3)ccc2N)cc1,1.99
6,CC(=O)OCC(=O)[C@@]1(O)CCC2C3CCC4=CC(=O)CC[C@]4(C)[C@@]3(F)[C@@H](O)C[C@@]21C (stereo not given in full),-0.889
7,CCN1CCN(CC(=O)Nc2ccc(-c3cccc4c(=O)cc(N5CCOCC5)oc34)c3sc4ccccc4c23)CC1,-1.47
8,[O-][N+]c1ccc(O)c2ncccc12,5.15
9,CCCCN1CCCCC1C(=O)Nc1c(C)cccc1C (stereo not given),0.561
10,CCOC(=O)NNc1nncc2ccccc12,2.54
11,C=CCn1c(=O)c2cnc(Nc3ccc(N4CCN(C)CC4)cc3)nc2n1-c1cccc(C(C)(C)O)n1,7.6
12,Cc1nnc(C(C)C)n1C1CC2CCC(C1)N2CC[C@H](NC(=O)C1CCC(F)(F)CC1)c1ccccc1 (stereo not given in full),0.0663
13,CC(=O)O[C@]1(C(C)=O)CCC2C3C=C(Cl)C4=CC(=O)CC[C@]4(C)C3CC[C@@]21C (stereo not given in full),4.12
14,COc1cc([C@H]2OC[C@H]3[C@@H]2CO[C@@H]3c2ccc(O)c(OC)c2)ccc1O,0.81
15,O=C(CN1CCNCC1)NC1CCCCC1,0.365
16,Cn1c(=O)c2c(ncn2C)n(C)c1=O,3.49
17,C[C@@H]1CC[C@]2(C(=O)O)CC[C@]3(C)C(=CCC4[C@@]5(C)CC[C@H](O)[C@](C)(C(=O)O)C5CC[C@]43C)C2[C@]1(C)O (stereo not given in full),2.09
18,c1ccc(CN2CCC3(CCc4ccccc43)CC2)cc1,1.94
19,CN1CCC(OC(c2ccccc2)c2ccccc2)CC1,-2.1
20,O=c1cc(-c2ccc(O)cc2)oc2c(C3OC(CO)C(O)C(O)C3O)c(O)c(C3OCC(O)C(O)C3O)c(O)c12 (stereo not given),0.842
21,C[C@@H]1Cc2c(O)c(O)cc(O)c2C(=O)O1,2.95
22,O=c1[nH]c(=O)c2ccccc2o1,1.33

row,Molecule,cell shape (Z-score)
1,Nc1ccn([C@@H]2O[C@H](CO)[C@@H](O)[C@@H]2O)c(=O)n1,-0.126
2,NC(COCc1ccccc1)C(=O)O (stereo not given),1.15
3,C[C@]12C=CC(=O)C=C1CCC1C2C(=O)C[C@@]2(C)C1CC[C@]2(O)C(=O)CO (stereo not given in full),2.52
4,CCCc1nn(C)c2c(=O)nc(-c3cc(S(=O)(=O)N4CCN(C)CC4)ccc3OCC)[nH]c12,0.36
5,COc1cc(C)c(C(=O)Oc2cc(C)c(C(=O)Oc3cc(C)c(C(=O)NC(C)C(=O)O)c(O)c3)c(O[C@@H]3O[C@H](CO)[C@@H](O)[C@H](O)[C@H]3OC(C)=O)c2)c(OC)c1 (stereo not given in full),2.29 ± 1.2
6,CC(=O)CCCC1Cc2cccc(O)c2C(=O)O1 (stereo not given),1.55
7,Cn1cnc([N+](=O)[O-])c1Cl,-0.296
8,Nc1cc(N2CCCCC2)nc(N)[n+]1[O-],-1.47
9,COc1ccccc1N1CCN(CCCCN2C(=O)CCC2=O)CC1,2.45
10,O=c1ccc2ccccc2o1,0.0243
11,O=C1CC(c2ccc(O)c(O)c2)Oc2c1ccc(O)c2O (stereo not given),3.28
12,O=C(CCCN1CCC(O)(c2ccc(Cl)cc2)CC1)c1ccc(F)cc1,-2.24
13,CCCc1cc(C(=N)S)ccn1,2.41
14,Nc1ccc(-c2nc3ccc(-c4nc5ccc(N)cc5[nH]4)cc3[nH]2)cc1,-0.879
15,COc1cc(O)c(Cc2ccccc2O)c(O)c1C(=O)CCc1ccccc1,1.81
16,COc1c(OC2OC(CO)C(O)C(O)C2O)cc(O)c2c1OC(c1ccccc1)CC2=O (stereo not given),1.91
17,C/C=C(/C)C(=O)OC1c2c(ccc3ccc(=O)oc23)OC(C)(C)C1OC(=O)/C(C)=C\C (stereo not given),0.395 ± 1.2
18,CCC[C@@H]1C[C@@H](C(=O)NC(C(C)Cl)C2O[C@H](SC)[C@H](O)[C@@H](O)[C@H]2O)N(C)C1 (stereo not given in full),3.16
19,CC(C)(O)CCC(=O)C(C)(O)C1C(O)CC2(C)C3CC=C4C(CC(OC5OC(CO)C(O)C(O)C5O)C(O)C4(C)C)C3(C)CCC12C (stereo not given),-0.37
